SMILES strings stand for the structures. Structures were worked out from names or drawings and are uncertain.

Chains of the proteins cited; added tags and fusions are not shown. Residues count along the entry.
UniProt P10636, 623-708 limits assumed: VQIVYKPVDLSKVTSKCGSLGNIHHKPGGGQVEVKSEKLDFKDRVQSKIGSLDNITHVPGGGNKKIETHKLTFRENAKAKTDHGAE

Assay [1] has as its system tau tangles on AD brain section. Put plainly: Assay 1: displacement of RefA on human AD brain sections (fluorescence). How it is done: (§1) Direct Binding of Compounds of this Invention to Human Alzheimer's Disease Brain Sections and/or Displacement of RefA and Compound B
(§2) Frozen sections with a thickness of […] from the amygdala of donors diagnosed with Braak stage V-VI Alzheimer's Disease (Braak, H.; Braak, E. Acta Neuropathol., 1991, 82, 239-259), were purchased from a commercial provider (Tissue Solutions) and kept at −80° C. until use.
Displacement of RefA and Compound B
Brain sections were mainly treated as described above. Test compounds were, however, incubated on the section at 250 μM in 50% ethanol for 20 min at room temperature, and then directly incubated with the fluorescent reference compounds RefA and Compound B, each at 1 μM in 50% ethanol for 20 min at room temperature. RefA and Compound B stainings were visualized using the 470 nm and 365 nm excitation filters, respectively. Images were acquired, and tangles and plaques quantified using the NIS-Element software. Only those compounds not directly staining tangles or plaques at the same wavelengths as RefA and Compound B were tested in the displacement assay.
Structure of RefA (Tago et al., J. Label. Compd. Radiopharm. 2013, DOI: 10.1002/jlcr.3133)

The target of assay [2] is T1, AD brain-enriched PHF (Homo sapiens, UniProt P10636). The experiment in a line: Assay 2 (filter trap): [3H]RefA radio-binding competition assay and Ki on PHF. As to conditions: read-out: [^3H]RefA competition [Ki]; [^3H]RefA 10 nM, PHF diluted 1/80, compound 0.12 nM to 50 μM. How it is done: Displacement of [^3H]RefA by Compounds of this Invention
(§3) 50 g of frontal lobe tissue from post-mortem brain of an Alzheimer's disease (AD) patient were obtained from the London Tissue Bank. The patient was a […] and died […]. The brain sample was collected 5 hours post-mortem and characterized for Braak disease stage (Braak, H.; Braak, E. Acta Neuropathol., 1991, 82, 239-259) as stage VI. […]
AD brain-enriched PHF diluted 1/80 were incubated in the presence of [^3H]RefA at 10 nM and the example compounds of this invention at 2.5 μM (250× excess), for 45 minutes at 37° C. Samples were then analyzed by on GF/B filter plates as described above (in the section “[^3H]RefA radio-binding assay and determination of the dissociation constant (Kd)). Non-specific signal was determined again with an excess of un-labeled RefA and specific binding calculated by subtracting the non-specific signal from the total signal. Competition was calculated as percent, where 0% was defined as the specific binding in the presence of vehicle (2.8% DMSO in PBS) and 100% as the values obtained in the presence of excess cold RefA. […]
Samples were then analyzed on GF/B filter plates as described above and Ki values calculated using Prism V5 (GraphPad).

For assay [3], the system named is tau tangles/Aβ plaques on AD brain sections. The experiment in a line: Assay 1: direct staining of human Alzheimer's disease brain sections (fluorescence). As to conditions: 100 μM compound, cell does not say tangles or plaques. How it is done:
Assay 1 (Fluorescence Based Assay):
as §1, §2
Direct Staining of Human Alzheimer's Disease Brain Sections
Brain sections were encircled with pap pen liquid blocker to reduce the volume of solution for the different incubations. Sections were fixed for 15 min at 4° C. with 4% paraformaldehyde and washed three times 5 minutes with PBS at room temperature. […] To reduce the auto-fluorescence of the tissue, the sections were incubated in a solution of 0.1% Sudan Black (Sigma 199664) in 70% ethanol for 15 min at room temperature in the dark, washed four times for 5 minutes with PBS, and mounted using ProLong Gold Antifade reagent (Invitrogen P36930). Sections were then analyzed on the Nikon Eclipse Ti microscope to detect staining and imaged using Nikon DS-Fi2 camera and NIS-Element AR4.13.1 software.

The target in assay [4] is T1, AD brain-enriched PHF. The experiment in a line: Assay 2 (filter trap): radio-binding assay, determination of the dissociation constant (Kd) on PHF. The note with it: tritiated ligand 1.25-50 nM, PHF diluted 1/80, 45 min 37° C. How it is done: Enrichment of Paired Helical Filaments (PHF's) from Human Alzheimer's Disease Brain
as §3
AD brain-enriched PHF were diluted 1/80 (with an estimated tau concentration of 62.5 ng/ml and incubated with [^3H]RefA at different concentrations ranging from 50 nM to 1.25 nM. The reaction was performed in a final volume of 70 μL PBS with 2.8% DMSO, for 45 min at 37° C. 30 μL of samples in duplicates were then filtered under vacuum on a GF/B filter plate (PerkinElmer 6005177) to trap the PHF with the bound radio-ligand, and washed three times with PBS. The GF/B filters were then vacuum-dried, 20 μL scintillation liquid (PerkinElmer 1200-436) was added in each well, and the filters were analyzed on a Microbeta Trilux device. […] Specific binding was calculated by subtracting the non-specific signal to the total signal. […] The Kd values were calculated by nonlinear regression, one site specific binding using Prism V5 (GraphPad). […]

Assay [5] has as its target Tau enriched paired helical filaments (PHF) from human Alzheimer's disease (AD) brains (Homo sapiens, UniProt P10636). The experiment in a line: Assay 3: backscattering interferometry, dissociation constants (Kd). As to conditions: read-out: [Kd] on PHF batch 6; PHF batch 6 (pooled frontal cortex, 25 AD patients). The text has this:
Assay 3 (Backscattering Interferometry):
Determination of Dissociation Constants (Kd) of Compounds of this Invention
Enrichment of Paired Helical Filaments (PHF's) from Human Alzheimer's Disease Brains
For backscattering interferometry, Tau enriched paired helical filaments (PHF) from human Alzheimer's disease (AD) brains were used as a target. Due to the limited availability of tissues, to determine dissociation constants (Kd) of compounds of this invention to the target, two different batches of enriched PHF were used. These batches are identified as batch 6 and 7 and were prepared as follows.
PHF batch number 6 was prepared starting from 25 g frontal cortical tissue from post-mortem brains of 25 Alzheimer's disease (AD) patients which were obtained from the London Tissue Bank. The mean age at death for the AD patients was 76 years (48% females). Brain samples were characterized for Braak disease stage (Braak and Braak, 1991), with most donors displaying a stage VI. The postmortem interval between death and brain dissection was between 6 and 65 h. Human brain homogenates were prepared by SB Drug Discovery (Glasgow, Scotland, UK) from the post-mortem cortical tissue of the 25 patients). […]

Broadly, the Ki is the equilibrium dissociation constant of an inhibitor or competing ligand from its target. Usually Kd stands for a measure of binding affinity in units of concentration. On to `CN1CCc2c(c3ccc(Nc4ccc(F)c(F)c4)nc3n2C)C1=O`, for which, in assay [1], the “Competition on AD brain section tau tangles (1 μM RefA vs. 250 μM compound)” value is on record as 26%. At AD brain-enriched PHF [2], the Ki came out at 719 nM. For the same molecule, the “Direct staining of tau tangles/Aβ plaques on AD brain sections at 100 μM” value in assay [3] is “−”. Further, the Kd on AD brain-enriched PHF [4] was 43 nM; in assay [5] it was 32 nM.

The values above are taken from patent publication US10662193B2, “Carbazole and carboline compounds for use in the diagnosis, treatment, alleviation or prevention of disorders associated with amyloid or amyloid-like proteins” (AC IMMUNE SA, priority 2014, dated 2020).
